In PubChem BioAssay AID2685 (National Center for Advancing Translational Sciences (NCATS), 2010) one finds cell number change and AC50 data, which are given here for 39 compounds.

The list shows a part of the results. Further columns of the screen follow, without active or inactive calls. Compounds called inactive in the main read-out are mostly missing here. Words in brackets tell the shape of the fitted curve; partial curves, single points and poor fits give uncertain potencies.

A short description of this assay: qHTS Assay for Lipid Storage Modulators in Drosophila S3 Cells.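 For cell number change: cells counted by Cell Tracker Red CMTPX staining in the red channel.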 The settings on record: BODIPY lipid droplet fluorescence, 18-24 h; for cell number change: measured here: cell count max response, cells fed with added oleic acid. Summed up:
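Laser-scanning cytometry quantifies lipid droplet accumulation (500–530 nm total intensity; droplet/cell object ratio) in oleic acid-fed (400 uM added) Drosophila S3 cells treated with a concentration series. 20 uM Triacsin C defined 100% inhibition.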
Background: In qHTS, concentration-response curves come from the screen itself.

Setting [1] is: measured here: lipid fluorescence (Fed channel) AC50, cells fed with added oleic acid.
The mark [2] stands for this setting: measured here: cell number channel AC50, cells fed with added oleic acid.

Regarding `CCC(=O)Nc1cccc(C(=O)/C=C/c2ccccc2)c1`, the cell number change is -38.2%. For orientation: AC50 means the concentration giving half of the maximal activity seen. Higher therefore signals weaker potency. `COC(=O)c1ccc(N)c(N=CC2=C(O)CC(C)(C)CC2=O)c1`: the AC50 under setting [1] was 25.9 µM [falling, single point]. Turning to `Cc1ccccc1NC(=O)c1ccc([N+](=O)[O-])o1`, the cell number change is -31.5%. For the same compound, under setting [2], the AC50 was 6.51 µM [falling, partial curve, poor fit]. Further, under setting [1], the AC50 is 29.1 µM [falling, single point]. Turning to `O=C1c2ccccc2C(=O)N1CCCn1ccnc1`, the cell number change was -5.51%. For the same compound, under setting [1], the half-maximal activity concentration (AC50) was 6.51 µM [rising, single point]. `Brc1ccc(CNc2ccc3ncccc3c2)cc1`: the cell number change was -21.8%. Besides, the AC50 under setting [1] was 18.4 µM [falling, single point]. `COc1ccc(-c2ncccc2OC(=O)C23CC4CC(CC(C4)C2)C3)cc1`: the cell number change was -26.6%. Under setting [1], the half-maximal activity concentration (AC50) is 16.4 µM [falling, single point]. On to `CN(C)c1ccc(S(=O)(=O)NCC(=O)N2CCN(c3ccccc3)CC2)cc1[N+](=O)[O-]`, for which the cell number change worked out at 29.7%. Besides, under setting [1], the AC50 is 18.4 µM [rising, single point]. On to `CC(=O)Nc1nc2n(n1)C(c1ccc(F)cc1)C=C(c1ccccc1)N2` (centres undefined), for which the cell number change is -22.8%. Moreover, under setting [1], the concentration at half-maximal activity (AC50) was 0.184 µM [rising, full curve]. Regarding `O=C(Nc1ccc(C(F)(F)F)cc1Cl)c1ccc(Cn2cc(Br)cn2)o1`, the cell number change was found to be 4.21%. For the same compound, the half-maximal activity concentration (AC50) under setting [1] was 25.9 µM [falling, single point]. `COC(=O)C1CCN(S(=O)(=O)Cc2ccccc2Cl)CC1`: the cell number change was found to be 11.9%. Moreover, the AC50 under setting [1] was 29.1 µM [falling, single point].

Take `CCOC(=O)CC1(NC(=O)C2CCC(=O)N(Cc3ccccc3F)C2)CCCCC1` (centres undefined): the cell number change was -76.9%. Besides, under setting [2], the AC50 was 29.1 µM [falling, single point]. Moreover, the AC50 under setting [1] was 18.4 µM [falling, single point]. With `Cc1nn2c(=O)cc(CSc3ccccc3NC(=O)c3ccccc3F)nc2s1`, the cell number change was -21.4%. As to `CCCCCCCC(=O)OC(CN1CCCCC1)CN1CCCC1=O` (centres undefined), the cell number change stood at 10.6%. For the same compound, the AC50 under setting [1] was 6.51 µM [falling, single point]. Consider `COC(=O)C1=C(C)N(c2cccc3ccccc23)C(=O)C1`, for which the cell number change came out at 6.88%. The same measure, in the same setting: under `CN(CC(=O)Nc1ccc(Cl)c(C(F)(F)F)c1)C(=O)c1cc(-c2ccncc2)nc2ccccc12` stands -16.9%. Take `Cc1ccc(S(=O)(=O)n2nc(OC(=O)c3cccc(F)c3)cc2N)cc1`: the AC50 under setting [2] is 0.82 µM [rising, full curve, poor fit] and the AC50 under setting [1] was 0.58 µM [falling, single point]. Consider `Cc1ccc(NC(=O)/C(C#N)=C/c2ccsc2)c(C)c1`, for which the cell number change was -7.71%. In addition, the half-maximal activity concentration (AC50) under setting [1] was 2.91 µM [rising, partial curve]. `COc1cc(/C=N/NC(=S)Nc2cccc(S(=O)(=O)N(C)C)c2)cc(OC)c1O`: the cell number change is -20.9%. Further, the AC50 under setting [1] is 29.1 µM [falling, single point]. As for `c1ccc(-c2oc3ncnc(NCCCN4CCOCC4)c3c2-c2ccccc2)cc1`, the cell number change is -39.4%. Moreover, the half-maximal activity concentration (AC50) under setting [2] is 20.6 µM [falling, partial curve]. Besides, under setting [1], the AC50 was 29.1 µM [falling, single point]. Turning to `Cc1nn(C(C)(C)C)c(N)c1-c1ccccc1`, the cell number change amounted to 1.93%. The same measure, in the same setting: as for `COc1ccc(C(=O)Oc2cccc(Nc3ncnc4ccccc34)c2)cc1OC`, the figure is -27.7%. In the case of `Cc1sc(NC(=O)C2C3CCC(O3)C2C(=O)O)nc1-c1ccc(CC(C)C)cc1` (centres undefined), the cell number change came to 2.59%. Also, the AC50 under setting [1] is 29.1 µM [falling, partial curve]. Consider `CCC(CC)C(=O)c1c[nH]c(C(=O)NCC2CCCO2)c1` (centres undefined), for which the cell number change was -16.8%. The AC50 under setting [1] was 2.06 µM [rising, partial curve, poor fit]. Consider `C=CCSc1nnc(NC(=O)Cc2ccc(OC)c(OC)c2)s1`, for which the cell number change worked out at 42.8%. In addition, under setting [2], the AC50 is 29.1 µM [rising, single point]. As to `O=C(COC(=O)c1ccc(Cl)c(S(=O)(=O)N2CCCCC2)c1)NCC1CCCCC1`, the cell number change was -1.07%. The concentration at half-maximal activity (AC50) under setting [1] was 0.231 µM [falling, full curve, poor fit]. Consider `CCn1cc(/C=N/NS(=O)(=O)c2ccc(OC)cc2)c(C)n1`, for which the cell number change worked out at 49.7%. Regarding `COC(=O)c1ccc(/C=C2\SC(=S)N(CCCC(=O)NCCCN3CCOCC3)C2=O)cc1`, the cell number change worked out at 15.4%. Moreover, the AC50 under setting [1] is 5.17 µM [rising, single point]. On to `COCCCNC(=O)c1c(N)n(/N=C/c2cccs2)c2nc3ccccc3nc12`, for which the cell number change was -22.1%. Take `COc1ccc(OCc2nnc(SCC(=O)N3CCCc4ccccc43)n2-c2ccc(C)cc2)cc1`: the cell number change was 20%. For the same compound, the AC50 under setting [2] was 0.58 µM [rising, partial curve].

Turning to `COc1ccc(CCN2C(=O)CC(N3CCOCC3)C2=O)cc1` (centres undefined), the cell number change worked out at 17.7%. Under setting [1], the AC50 was 6.51 µM [rising, partial curve]. `O=C(CC1S/C(=N\S(=O)(=O)c2ccc(F)cc2)N(c2ccccc2)C1=O)Nc1ccccc1` (centres undefined): the cell number change is -64.4%. For the same compound, the AC50 under setting [2] was 14.6 µM [falling, partial curve, poor fit]. The AC50 under setting [1] was 29.1 µM [falling, single point]. As for `Cc1ccc(S(=O)(=O)N(C)C)cc1NC(=O)COC(=O)CN1C(=O)c2ccccc2C1=O`, the cell number change was -36.7%. Also, the half-maximal activity concentration (AC50) under setting [2] is 4.61 µM [falling, full curve]. Also, the half-maximal activity concentration (AC50) under setting [1] is 5.17 µM [falling, partial curve, poor fit]. Consider `COc1ccc(C2NC(C(=O)O)Cc3c2[nH]c2ccccc32)cc1OC` (centres undefined), for which the cell number change is 34.3%. The AC50 under setting [2] is 14.6 µM [rising, partial curve, poor fit]. On to `CCn1c(SCC(=O)N/N=C/C=C/c2ccco2)nc2ccccc21`, for which the cell number change is -19.7%. Further, the AC50 under setting [1] was 0.00461 µM [falling, full curve, poor fit]. As for `CN(C)/C=N/c1c(C#N)cnn1-c1ncnc2sc(-c3ccccc3)cc12`, the cell number change came out at 2.92%. Under setting [1], the half-maximal activity concentration (AC50) is 0.326 µM [rising, full curve, poor fit]. In the case of `COc1ccc(CC(=O)NNC(=S)Nc2ccc(Br)cc2)cc1`, the cell number change was -10.7%. The half-maximal activity concentration (AC50) under setting [1] was 11.6 µM [rising, partial curve].

On to `CCOC(=O)CCCSc1nc(-c2ccc3c(c2)OCO3)cc(C(F)(F)F)c1C#N`, for which the cell number change came out at 23.7%. The half-maximal activity concentration (AC50) under setting [1] is 0.0366 µM [rising, full curve, poor fit].

Turning to `CN(C)CCCN1C(=O)CSC1c1ccccc1` (centres undefined), the cell number change was -12.1%. For the same compound, the AC50 under setting [1] was 18.4 µM [falling, partial curve, poor fit]. For the compound `COc1cc(-c2nc(-c3ccccc3)c(-c3cccs3)[nH]2)cc(OC)c1OC`, the cell number change is 16.1%. Besides, the AC50 under setting [1] was 2.06 µM [rising, partial curve].
